Substitutions are numbered along the chain they refer to. Results are given in words; binding and its absence hold for the method and conditions named. Some binding calls cover weakened binding; strength is not graded here.
B1: BAP-143-06-24-16 (antibody, V domains shown)
VH: EVQLVQSGAEVKKPGATVKISCKVSGFTFSSYNMNWIRQSPSRGLEWLGYISSSSSTIYYADSVKGRFTISRDNSKNTLYLQMNSLRAEDTAVYYCARAYYYGDDVWGQGTLVTVSS
VL: DIQMTQSPSSVSASVGDRVTITCHASQGISGWLAWYQQKPGKAPKFLIYAASTLQSGVPSRFSGSGSGTDFTLTISSLQPEDFATYYCQQANSFPPTFGGGTKVEIK
notes: Used as a conjugate with a linker payload (CAB ADC)
B2: BAP-143-06-33-03 (antibody, V domains shown)
VH: QVQLVQSGAEVKKPGASVKVSCKASGFTFSSYNMNWVRQARGQRLEWIGYISSSSSTIYYADSVKGRFTISRDNSKNTLYLQMNSLRAEDTAVYYCARAYYYGMDKWGQGTLVTVSS
VL: B1 VL with H24R, F94E
notes: as for B1
B3: BAP-143-07-03-12 (antibody, V domains shown)
VH: EVQLVESGGGLVQPGGSLRLSCAASGFTFSSYNMNWVRQAPGKGLEWVSYISSSSSTIYYADSVKGRFTISRDNAKNSLSLQMNSLRDEDTAVYYCARAYYYGMDKWGQGTTVTVSS
VL: B1 VL with H24R, L33E
notes: as for B1
B4: BAP-143-06-33-16 (antibody, V domains shown)
VH: B1 VH
VL: B1 VL with H24R, L33E
notes: as for B1

Target: T1, human Nectin-4 on cells (human, UniProt Q96NY8 32-510)
T1 sequence (looked up): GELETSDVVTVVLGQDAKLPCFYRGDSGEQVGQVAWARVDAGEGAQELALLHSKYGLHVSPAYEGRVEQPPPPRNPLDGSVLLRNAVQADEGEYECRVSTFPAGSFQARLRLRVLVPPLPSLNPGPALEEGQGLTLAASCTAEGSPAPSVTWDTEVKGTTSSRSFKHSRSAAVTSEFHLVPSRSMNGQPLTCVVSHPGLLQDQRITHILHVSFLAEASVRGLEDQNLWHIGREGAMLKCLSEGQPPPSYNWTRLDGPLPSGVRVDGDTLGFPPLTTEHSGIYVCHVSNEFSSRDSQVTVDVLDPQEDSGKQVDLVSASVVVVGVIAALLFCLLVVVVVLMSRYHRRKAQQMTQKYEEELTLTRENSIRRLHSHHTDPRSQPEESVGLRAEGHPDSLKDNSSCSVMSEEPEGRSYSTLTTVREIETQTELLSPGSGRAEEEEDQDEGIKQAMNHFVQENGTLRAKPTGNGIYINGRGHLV
Assay: FACS, T47D cells

binding, binds:
B1
B2
B3
B4

Target: cyno Nectin-4 on cells (cyno)
Assay: FACS, HEK293 cells expressing cyno Nectin-4

binding, binds:
B1
B2
B3
B4

Target: T1, human Nectin-4 on cells
Assay: FACS, HEK293 cells expressing human Nectin-4

binding, binds:
B1
B2
B3
B4

Target: T1, human Nectin-4 on cells
Assay: FACS, T47D cells (human Nectin-4), pH 6.0

binding, binds:
B1
B2
B3
B4

Target: T1, human Nectin-4 on cells
Assay: FACS, T47D cells (human Nectin-4), pH 7.4

binding, binds:
B1
B2
B3
B4

Target: cynoNectin4 antigen (cynomolgus (cyno))
Assay: ELISA, coated cyno Nectin-4, pH 6.0, ADC titrated

binding, binds:
B1
B2
B3
B4

Target: cynoNectin4 antigen (cynomolgus (cyno))
Assay: ELISA, coated cyno Nectin-4, pH 7.4, ADC titrated

binding, binds:
B1
B2
B3
B4

Target: cyno Nectin-4 on cells (cyno)
Assay: FACS, HEK293 cells expressing cyno Nectin-4, pH 6.0

binding, binds:
B1
B2
B3
B4

Target: cyno Nectin-4 on cells (cyno)
Assay: FACS, HEK293 cells expressing cyno Nectin-4, pH 7.4

binding, binds:
B1
B2
B3
B4

Target: T1, human Nectin-4 on cells
Assay: FACS, HEK293 cells expressing human Nectin-4, pH 6.0

binding, binds:
B1
B2
B3
B4

Target: T1, human Nectin-4 on cells
Assay: FACS, HEK293 cells expressing human Nectin-4, pH 7.4

binding, binds:
B1
B2
B3
B4

Target: T2, recombinant human Nectin4 antigen (human, UniProt Q96NY8 32-349)
T2 construct: construct not described
T2 sequence (looked up): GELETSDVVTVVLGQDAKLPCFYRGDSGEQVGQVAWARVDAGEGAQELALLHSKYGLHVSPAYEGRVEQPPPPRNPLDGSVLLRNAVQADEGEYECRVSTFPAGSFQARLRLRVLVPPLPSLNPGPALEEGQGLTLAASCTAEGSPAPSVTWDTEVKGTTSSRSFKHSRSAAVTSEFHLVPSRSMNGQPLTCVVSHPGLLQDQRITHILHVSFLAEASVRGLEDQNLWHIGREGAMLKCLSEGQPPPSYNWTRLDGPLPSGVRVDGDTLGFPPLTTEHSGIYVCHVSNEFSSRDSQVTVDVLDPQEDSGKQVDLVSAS
Assay: ELISA, coated recombinant human Nectin-4, pH 6.0, ADC titrated

binding, binds:
B1

Target: T2, recombinant human Nectin4 antigen
Assay: ELISA, coated recombinant human Nectin-4, pH 7.4, ADC titrated

binding, binds:
B1

Target: T2, recombinant human Nectin4 antigen
Assay: pH range ELISA (pH 5.5-7.4), coated recombinant human Nectin-4, ADC at 30 ng/mL

binding, binds:
B1
